# In PubChem BioAssay AID2551 (National Center for Advancing Translational Sciences (NCATS), 2010):
# The chains behind the UniProt entries cited, without tags or fusion partners. Where a name states a change or a piece, a line headed by the entry shows the natural chain unless it says otherwise.
# UniProt P51450: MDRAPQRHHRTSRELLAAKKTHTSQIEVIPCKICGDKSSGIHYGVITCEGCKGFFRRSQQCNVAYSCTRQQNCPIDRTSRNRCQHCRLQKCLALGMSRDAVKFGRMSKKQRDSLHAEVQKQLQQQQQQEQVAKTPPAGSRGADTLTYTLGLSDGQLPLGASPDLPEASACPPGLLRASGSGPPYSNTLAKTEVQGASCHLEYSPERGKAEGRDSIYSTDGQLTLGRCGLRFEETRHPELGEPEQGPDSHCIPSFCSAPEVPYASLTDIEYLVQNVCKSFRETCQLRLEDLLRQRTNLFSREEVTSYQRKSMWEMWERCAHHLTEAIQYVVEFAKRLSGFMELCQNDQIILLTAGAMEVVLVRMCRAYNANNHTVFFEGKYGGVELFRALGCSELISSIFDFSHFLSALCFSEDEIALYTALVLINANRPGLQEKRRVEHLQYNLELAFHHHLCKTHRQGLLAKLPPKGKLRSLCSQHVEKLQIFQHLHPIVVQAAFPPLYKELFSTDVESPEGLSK
# About 17,000 (5.5%) of roughly 310,000 compounds were called active. The shares of active, inactive and inconclusive entries below differ from those in the screen. Calls follow the shape of the dose curve; as a rule, active = well fitted inhibition curve with a large enough effect; inconclusive = small, poorly fitted or top-dose-only effect, or effect the other way; inactive = no such curve, though single readings can be large or run the other way. Where the call is inconclusive, the potency comes from a doubtful curve fit.
# Target: Nuclear receptor ROR-gamma (Mus musculus) (UniProt P51450)
# Test: qHTS for inhibitors of ROR gamma transcriptional activity; also: nearly all actives have a fitted effect of over 60% in size
# Conditions: Drosophila S2 Gal4-RORgamma UAS-luciferase reporter, 20 h; activity change, negative = inhibition: at 53.6 µM (top of the series)
# In short: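 Drosophila S2 cells stably expressing Gal4-DBD/mouse RORγ fusion under metallothionein promoter plus UAS-luciferase; compound 1 h, then 700 uM CuSO4 induction for 20 h at ambient temperature; inhibition read as reduced luminescence.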
# % is scaled to controls: 0 for no effect and ±100 for the full control effect; potency is read from the fitted curve at half-maximal effect.
SMILES,Potency,"activity change, negative = inhibition"
CCCNC(=O)C1CC(=O)N(c2ccc(OCC(=O)Nc3cccc(C)c3C)cc2)C1 (stereo unspecified),"inconclusive: 1.78 µM [activator, partial curve]",–
CCOC(=O)c1nn(-c2ccc(F)cc2)c2nc(Nc3ccccc3)cc(=O)n12,"inconclusive: 17.8 µM [activator, single point]",–
COc1ccc(CCNS(=O)(=O)c2ccc(Cl)cc2)cc1OC,inactive,–
Cc1cc([N+](=O)[O-])ccc1-c1ccc(/C=N/NC(=O)c2ccc(Br)o2)o1,active: 7.08 µM,–
Clc1ccc(-n2cccc2CN2CCc3c([nH]c4ccccc34)C2c2ccccn2)nc1 (stereo unspecified),active: 12.6 µM,–
CCCCN(C)CCC(=O)Nc1ccc(OC)cc1OC,"inconclusive: 1.58 µM [inhibitor, partial curve]",–
CCC(=O)N1c2ccc(S(=O)(=O)CCC(=O)Nc3ccc(OC)cc3OC)cc2CC1C (stereo unspecified),inactive,–
CCOc1ccc(C(C)NC(=S)NC2CCCCC2)cc1 (stereo unspecified),active: 3.16 µM,–
Cc1ccc(S(=O)(=O)Nc2ccccc2CNc2cccc(C)n2)cc1,inactive,–
CSc1nc(O)c(N=Nc2ccc(F)cc2F)c(=O)[nH]1,"inconclusive: 8.91 µM [inhibitor, partial curve, poor fit]",–
COc1ccc(CC(=O)Nc2cc(C)c3c(=O)oc4ccccc4c3n2)cc1,"inconclusive: 0.112 µM [inhibitor, full curve]",–
CCOC(=O)C1CCN(C(=O)c2c(C)oc3c2C(=O)c2ccccc2C3=O)CC1,active: 11.2 µM,–
O=C(c1ccccc1)N1CCSc2sccc2C1=O,"inconclusive: 15.8 µM [inhibitor, single point]",–
CCC(=O)Oc1ccc(C(=O)Nc2ccc3c(c2)C(=O)N(C2CCCCC2)C3=O)cc1,inactive,–
CCC(=O)Nc1ccc(CCC(=O)N2CCCC2)cc1,inactive,–
CCn1c(=O)c(C(=O)NCCN2CCCCC2)c(O)c2ccccc21,"inconclusive: 11.2 µM [inhibitor, single point]",–
COc1ccc(C2CCCN2C(=S)Nc2cccc(Cl)c2)cc1OC (stereo unspecified),"inconclusive: 25.1 µM [inhibitor, single point]",–
COCc1ccc(C(=O)NC2CCCc3c2cnn3-c2ccc(C)c(C)c2)o1 (stereo unspecified),"inconclusive: 10 µM [activator, partial curve, poor fit]",–
COc1ccc(NC(=O)C2CCCC2)cn1,inactive,–
O=c1cc(Nc2ccc3c(c2)OCCO3)[nH]c(=O)n1-c1ccc(Br)cc1,"inconclusive: 3.55 µM [activator, single point]",–
CCOC(=O)C1=C(C)Nc2ncnn2C1c1c[nH]c2ccccc12 (stereo unspecified),active: 10 µM,–
CCNC(=O)CC(=O)Nc1ccccc1C(=O)O,"inconclusive: 3.98 µM [inhibitor, single point]",–
Cc1cc(C)c(NC(=O)CSc2nnnn2-c2cccnc2)c(C)c1,inactive,–
Cc1cccc(NC(=S)Nc2cccc(C)n2)n1,"inconclusive: 2.82 µM [inhibitor, full curve, poor fit]",–
O=C(N1CCOCCOc2ccccc2OCCOCC1)C(F)(F)F,–,inactive: -29.1% [at 1.91 µM]
CCOc1cc(/C=C(/C#N)C(=O)Nc2ccc(O)cc2)cc(Br)c1O,"inconclusive: 35.5 µM [inhibitor, single point]",–

# Entries of single compounds from above.
# `Clc1ccc(-n2cccc2CN2CCc3c([nH]c4ccccc34)C2c2ccccn2)nc1` (stereo unspecified) is listed with Potency: active: 12.6 µM
# `Cc1cccc(NC(=S)Nc2cccc(C)n2)n1` is listed with Potency: inconclusive: 2.82 µM [inhibitor, full curve, poor fit]
# `CCOC(=O)c1nn(-c2ccc(F)cc2)c2nc(Nc3ccccc3)cc(=O)n12` is listed with Potency: inconclusive: 17.8 µM [activator, single point]

# The listing continues:

SMILES,Potency,"activity change, negative = inhibition"
O=C(CNC(=O)c1ccccc1F)c1ccccc1,active: 11.2 µM,–
COc1ccc(NC(=O)COC(=O)Cc2c(F)cccc2Cl)cc1OC,"inconclusive: 11.2 µM [activator, partial curve, poor fit]",–
Cc1c(NC(=S)NC(=O)c2cccc(Br)c2)c(=O)n(-c2ccccc2)n1C,inactive,–
O=C(CCCN1C(=O)/C(=C\c2cccs2)SC1=S)Nc1cc([N+](=O)[O-])ccc1O,"inconclusive: 2.24 µM [activator, partial curve]",–
O=C(Nc1ncccn1)c1ccc([N+](=O)[O-])o1,active: 14.1 µM,–
CCCCc1ccc(NC(=S)NCc2cccc(OC)c2)cc1,active: 3.55 µM,–
CN(C)c1nc(N)nc(CSc2ncc(Cl)cc2Cl)n1,active: 12.6 µM,–
COC(=O)c1cccc(NC(=O)CSc2nnc(-c3ccco3)o2)c1,inactive,–
N#CCSc1nc2ccc(N3CCCCC3)cc2c(=O)n1Cc1ccccc1,active: 3.55 µM,–
CCOc1ccc(NC(=S)NC(=O)/C=C/c2ccco2)cc1,active: 3.98 µM,–
Cc1nn(C)cc1S(=O)(=O)N1CCN(c2ccccc2)CC1,inactive,–
Cc1ccc(-c2csc(NC(=O)c3ccco3)n2)cc1C,inactive,–
COc1ccc(CCNC(=S)NC(=O)c2ccccc2)cc1C,active: 10 µM,–
Cc1ccc2c(Cl)cc(Cl)c(OCC(=O)Nc3cccc(S(=O)(=O)N(C)C)c3)c2n1,active: 5.01 µM,–
CN(C(=O)c1cnc(N2CCN(c3ncccn3)CC2)c2ccccc12)c1ccc(Cl)cc1,inactive,–
COc1ccc(/C=C/C(=O)Nc2cc(S(=O)(=O)N3CCCCC3)ccc2N2CCCCC2)cc1OC,"inconclusive: 3.55 µM [activator, full curve]",–
Cc1cccc(C)c1-n1c(C)nn(CC2CC2)c1=O,"inconclusive: 0.0071 µM [inhibitor, full curve, poor fit]",–
O=C1C2C3c4ccccc4C(c4ccccc43)[C@@H]2c2nc3ccccc3n21 (stereo partly specified),active: 11.2 µM,–
Cc1cccc(C)c1NC(=O)CSc1nnc(-c2ccco2)c(-c2ccco2)n1,inactive,–
O=C(CCN1CCOCC1)N/N=C/c1cc(Br)cc(Br)c1O,active: 1.41 µM,–
O=c1o[nH]c(-c2ccccc2)c1N=Nc1c(F)cccc1Cl,"inconclusive: 35.5 µM [inhibitor, single point]",–
O=C(Nc1nc2ccccc2s1)c1cc(-c2ccco2)nc2ccccc12,"inconclusive: 17.8 µM [inhibitor, partial curve, poor fit]",–
COc1ccc(Nc2nc(N)nc(CSc3nnc(N)s3)n2)cc1,"inconclusive: 35.5 µM [inhibitor, single point]",–
O=C(c1ccccc1)N1N=C(c2ccc(F)cc2)CC1(O)C(F)(F)F (stereo unspecified),"inconclusive: 17.8 µM [inhibitor, single point]",–
COCCNC(=O)c1ccc(N2CC3CC(C2)c2cccc(=O)n2C3)c(NC(=O)c2ccc(Br)o2)c1 (stereo unspecified),inactive,–
COCCNC(=O)c1snc2ccc(Cl)cc12,"inconclusive: 5.62 µM [activator, partial curve]",–

SMILES,Potency,"activity change, negative = inhibition"
Cc1oc(-c2ccccc2Cl)nc1CSCC(=O)NC1CCCC1,inactive,–
COc1cc(/C=C2\NC(=S)N(C)C2=O)ccc1O,"inconclusive: 35.5 µM [inhibitor, single point]",–
O=C(NCc1cccnc1)C(=O)Nc1nc(C23CC4CC(CC(C4)C2)C3)cs1,"inconclusive: 14.1 µM [inhibitor, single point]",–
CNNC(=S)NC1CC2CC1C1C=CCC21 (stereo unspecified),"inconclusive: 20 µM [inhibitor, single point]",–
COc1ccc(-c2nc(NC(=O)c3cc(C(C)(C)C)nn3C)sc2C)cc1,"inconclusive: 35.5 µM [inhibitor, single point]",–
CCN(C(=O)[C@@H]1CCCN1C(=O)c1cccs1)c1nc2cc(Cl)ccc2s1,"inconclusive: 12.6 µM [activator, partial curve]",–
COCC1CCN(C(=O)c2cc(COc3cccc4cnccc34)on2)CC1,inactive,–
Cc1ccc(C)c(NC(=S)NCCc2c[nH]c3ccccc23)c1,active: 1.26 µM,–
Cc1ccc(S(=O)(=O)NCCCCC(NC(=O)OC(C)(C)C)C(=O)O)cc1 (stereo unspecified) (tested in a mixture with another compound),"inconclusive: 7.08 µM [inhibitor, partial curve, poor fit]",–
CC(C)c1ccc(NC2CCCN(C(=O)CCN3CCCCO3)C2)cc1 (stereo unspecified),inactive,–
FC(F)(F)c1cnc(N2CCCN(C(=S)Nc3ccccc3)CC2)c(Cl)c1,active: 7.94 µM,–
CC(=O)c1ccc(NS(=O)(=O)c2cc3c(cc2C)N(C)CCO3)cc1,"inconclusive: 17.8 µM [activator, partial curve, poor fit]",–
COc1ccccc1C(O)c1nccn1C (stereo unspecified),"inconclusive: 0.158 µM [activator, full curve]",–
CCOc1ccccc1C(=O)N1CCC(n2nnc3cc(C)ccc32)CC1,"inconclusive: 3.16 µM [inhibitor, single point]",–
COc1cccc(C(=O)/C(C#N)=N/Nc2cccc(-c3ccnc(C)n3)c2)c1,"inconclusive: 15.8 µM [activator, single point]",–
CCCCN(CCCC)S(=O)(=O)c1ccc(NS(=O)(=O)c2ccc(NC(C)=O)cc2)cc1,inactive,–
COc1ccc(OC)c(-n2c(CNC3CCN(Cc4ccccc4)CC3)nc3ccccc3c2=O)c1,inactive,–
CCn1c(Cc2ccccc2)n[nH]c1=S,"inconclusive: 20 µM [inhibitor, single point]",–
COc1cccc(CNc2ccc3[nH]c(=O)[nH]c3c2)c1OCc1ccccc1F,"inconclusive: 20 µM [activator, single point]",–
C/C(=N\NC(=O)c1cc(-c2cccs2)nc2ccccc12)c1ccccn1,active: 0.1 µM,–
O=C(NC(=S)Nn1cnc2c(cnn2-c2ccccc2)c1=O)c1ccccc1,"inconclusive: 35.5 µM [inhibitor, single point]",–
CC(=O)Nc1ccc(S(=O)(=O)Nc2nnc(CC(C)(C)C)s2)cc1,inactive,–
CS(=O)(=O)c1ncc(Cl)c(C(=O)Nc2ccc3ccccc3c2)n1,active: 2.82 µM,–
COc1ccc(NC(=O)c2c(F)cccc2F)cc1S(=O)(=O)Nc1ccc(Br)cc1,"inconclusive: 17.8 µM [activator, single point]",–
